The values that follow come from paper PMC2194165.

Sequences of proteins named here, by UniProt entry; tags and fusion partners are left off. A change or cut given only in a name is not applied to a line headed by its entry.
UniProt O75716: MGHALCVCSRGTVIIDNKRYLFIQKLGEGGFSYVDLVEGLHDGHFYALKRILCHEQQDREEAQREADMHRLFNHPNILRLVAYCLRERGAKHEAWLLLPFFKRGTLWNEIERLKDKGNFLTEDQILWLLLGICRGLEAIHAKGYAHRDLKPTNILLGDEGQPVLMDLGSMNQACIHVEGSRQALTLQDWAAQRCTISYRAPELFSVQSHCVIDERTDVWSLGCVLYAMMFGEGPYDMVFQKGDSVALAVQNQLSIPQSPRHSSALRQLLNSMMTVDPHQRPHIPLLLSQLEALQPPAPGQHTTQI

Assay [1] concerns the target T1, GST-DRG1 (developmentally regulated GTP binding protein 1, full length) (UniProt Q9Y295).
T1 sequence: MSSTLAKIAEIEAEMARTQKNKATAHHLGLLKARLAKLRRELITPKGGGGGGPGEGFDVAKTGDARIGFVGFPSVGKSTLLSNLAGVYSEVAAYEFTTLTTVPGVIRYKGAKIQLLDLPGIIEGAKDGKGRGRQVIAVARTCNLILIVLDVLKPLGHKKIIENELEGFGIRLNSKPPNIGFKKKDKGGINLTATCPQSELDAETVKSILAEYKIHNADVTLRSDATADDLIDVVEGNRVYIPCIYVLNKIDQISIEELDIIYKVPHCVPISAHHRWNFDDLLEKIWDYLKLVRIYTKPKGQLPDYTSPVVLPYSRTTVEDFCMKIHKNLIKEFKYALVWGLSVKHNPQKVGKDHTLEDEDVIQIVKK
As to the kind of experiment: pull-down; GST-DRG1 saturated with beta-S-GDP or gamma-S-GTP, loaded onto a glutathione-Sepharose column, washed stringently, eluted with glutathione; western blot with MPSK1 antiserum.

In assay [2] the target is T1, GST-DRG1 (developmentally regulated GTP binding protein 1, full length). As to the kind of experiment: pull-down; MPSK1 expressed from NIH 3T3 cells copurified with GST-DRG1; data not shown.
Assay [3] deals with MPSK1 (residues 13-305), N-terminal 6x His tag (human) (UniProt O75716). As to the kind of experiment: pull-down; immobilized His-tagged MPSK1 with six C-terminal truncation variants of DRG1; data not shown.
Assay [4] has the same target. As to the kind of experiment: pull-down; purified His-MPSK1 with GST-DRG1 or DRG1-N65 loaded onto a Ni-NTA column, washed stringently, eluted with 200 mM imidazole; SDS-PAGE; both purified.

No constants are given. Whether binding was seen depends on the method and setting. For some of these results: Binding seen in cells or lysates may run through a third protein. Some entries that bind do so weakly or less than the wild type. For some of these results: Where a sequence is shown, tags or fusion partners need not be part of it.

As to “MPSK1 (residues 13-305), N-terminal 6x His tag (from UniProt O75716 13-305) (domain or fragment)”, the binding result in assay [1] was “binds”.

Regarding “MPSK1 expressed in NIH 3T3 cells (from UniProt O75716 1-305)”, the binding entry in assay [2] is on record as “binds”.

B1: DRG1-N65 (region 1-65 of DRG1) (domain or fragment, UniProt Q9Y295 1-65)
chain: MSSTLAKIAEIEAEMARTQKNKATAHHLGLLKARLAKLRRELITPKGGGGGGPGEGFDVAKTGDA
As for B1, the binding entry in assay [3] and in assay [4] was “binds” in each case.
